The values that follow come from publication doi:10.1101/2020.04.25.061234.

By UniProt entry, the sequences of proteins in these tests, tags left out. Residues count along the entry.
UniProt P07948, residues 63-123: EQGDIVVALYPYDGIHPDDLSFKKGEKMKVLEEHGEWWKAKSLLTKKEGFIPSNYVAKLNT

This assay addresses GST-hLynSH3 (human Lyn SH3 domain, amino acids 63-123, with N-terminal GST) (human) (UniProt P07948). Put plainly: pull-down.

Results are given in words; binding and its absence hold for the method and conditions named. Binding seen in cells or lysates may run through a third protein. Some entries that bind do so weakly or less than the wild type. Where a sequence is shown, tags or fusion partners need not be part of it.

B1: His-tagged human thymidine phosphorylase (TYMP) (enzyme, UniProt P19971 11-482)
chain: APPAPGDFSGEGSQGLPDPSPEPKQLPELIRMKRDGGRLSEADIRGFVAAVVNGSAQGAQIGAMLMAIRLRGMDLEETSVLTQALAQSGQQLEWPEAWRQQLVDKHSTGGVGDKVSLVLAPALAACGCKVPMISGRGLGHTGGTLDKLESIPGFNVIQSPEQMQVLLDQAGCCIVGQSEQLVPADGILYAARDVTATVDSLPLITASILSKKLVEGLSALVVDVKFGGAAVFPNQEQARELAKTLVGVGASLGLRVAAALTAMDKPLGRCVGHALEVEEALLCMDGAGPPDLRDLVTTLGGALLWLSGHAGTQAQGAARVAAALDDGSALGRFERMLAAQGVDPGLARALCSGSPAERRQLLPRAREQEELLAPADGTVELVRALPLALVLHELGAGRSRAGEPLRLGVGAELLVDVGQRLRRGTPWLRVHRDGPALSGPQSRALQEALVLSDRAPFAAPSPFAELVLPPQQ
On to B1, for which the binding result is reported as “binds”.
